Data published in PubChem BioAssay AID493014 (National Center for Advancing Translational Sciences (NCATS), 2011).
The list shows a part of the results. The main result of the screen is listed elsewhere. These columns were measured beside it and carry no call. The list favours compounds with an active or inconclusive main result. The note in brackets gives the kind of curve behind each potency; many fits are weak.

Assay: qHTS Assay to Find Inhibitors of Chronic Active B-Cell Receptor Signaling
Conditions: ABC-DLBCL IkBa-CBG/CBR reporter, luminescence ratio (green luciferase fused to IkBa over red control in TMD8 lymphoma cells), 4 h
Outline: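 TMD8 human ABC-DLBCL cells with doxycycline-inducible IκBα–green luciferase fusion and unfused red luciferase, in 0.5% FBS medium; compounds up to 46 uM, 4 h at 37C. Green/red luminescence ratio, filter-overlap corrected, fitted to concentration-response curves.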

[1] = measured here: CBR red luminescence, cell number
[2] = measured here: IkBa-CBG green luminescence

SMILES	AC50 [1]	AC50 [2]
COc1ccc(S(=O)(=O)NC2CC(C)(C)NC(C)(C)C2)c(C)c1C	8.2 µM [rising, partial curve, poor fit]	–
CCOC(=O)C1CCCN(C(=O)CN2C(=O)c3ccccc3S2(=O)=O)C1 (stereo unspecified)	20.6 µM [rising, single point]	–
CCc1nc(C)c(C(=O)N2CCCC(C(=O)Nc3cccc(-c4cccc(C)c4)c3)C2)o1 (stereo unspecified)	22.4 µM [falling, single point]	–
C(=C\c1nc2ccccc2[nH]1)/c1ccccc1	5.01 µM [falling, full curve, poor fit]	–
COc1ccc(C2NC(=S)N(c3ccccc3)C(C)=C2C(=O)Nc2ccccc2)cc1 (stereo unspecified)	5.8 µM [falling, full curve, poor fit]	–
CCc1nnc(NS(=O)(=O)c2ccc(N=Cc3c(C)[nH]n(-c4cccc(Cl)c4)c3=O)cc2)s1	0.206 µM [rising, full curve, poor fit]	20.6 µM [rising, single point]
CCn1c2ccccc2c2nnc(SCC(=O)NCc3cccs3)nc21	35.5 µM [rising, partial curve, poor fit]	–
N#CC1(C#N)C(c2ccccc2)OC23CCCCC2C1(C#N)C(=N)O3 (stereo unspecified)	32.6 µM [falling, single point]	–
FC(F)Oc1ccc(/C=N/N2CCCCC2)c(OC(F)F)c1	10 µM [rising, partial curve]	–
O=C(NCCc1ccc(Cl)cc1)c1ccc2nccnc2c1	6.31 µM [falling, partial curve]	–
CNC(=O)c1c(NC(=O)c2ccco2)sc2c1CCCC2	0.282 µM [rising, full curve, poor fit]	–
Cc1ccccc1-n1nc(C)c(N=O)c1N	1.41 µM [rising, full curve, poor fit]	–
CCOC(=O)c1ccc(N/C=C2/CCCC(C)C2=O)cc1 (stereo unspecified)	0.326 µM [falling, full curve]	–
CC(=C\c1ccccc1)/C=C1/SC(=S)N(CCCC(=O)O)C1=O	0.398 µM [falling, full curve]	–
CC(C)(C)c1ccc(OCC(=O)Nc2ccc(C(=O)Nc3ccccc3C(=O)O)cc2)cc1	20 µM [falling, partial curve, poor fit]	–
CC(=O)/C=C(\C)Nc1ccccc1O	35.5 µM [falling, single point]	–
C/C(=N/NC(=O)c1ccc2c(c1)OCO2)c1ccc(NC(=O)C(F)(F)F)cc1	7.31 µM [falling, partial curve]	–
CC(OC(=O)CNC(=O)C12CC3CC(CC(C3)C1)C2)C(=O)Nc1ccc(N2CCOCC2)cc1 (stereo unspecified)	10.3 µM [rising, single point]	–
COc1ccc2c(c1)c(C(C)=O)c(C)n2CCc1ccc(OC)c(OC)c1	5.62 µM [rising, single point]	–
O=C(CCC1CCCN(C(=O)CC2=CCCCC2)C1)N1CCN(c2ccccn2)CC1 (stereo unspecified)	6.31 µM [rising, partial curve, poor fit]	–
CCOC(=O)c1ccc(Nc2nc(N)c3cc(OC)c(OC)cc3n2)cc1	12.6 µM [falling, single point]	–
O=C(CSc1ccc(F)cc1)Nc1nnc(-c2ccco2)o1	16.4 µM [falling, single point]	–

SMILES	AC50 [1]	AC50 [2]
O=C(Cn1cccc1)N1CCN(C(c2ccccc2)c2ccccc2)CC1	11.6 µM [rising, partial curve]	–
Cc1ccsc1/C=N/NC(=O)c1nnn(-c2nonc2N)c1-c1ccc2c(c1)OCO2	10 µM [falling, partial curve]	–
Oc1ccc(O)c2c1C1c3ccccc3C2c2ccccc21	35.5 µM [rising, single point]	–
COc1ccc(Nc2cc(C(=O)NCCCN(C)c3ccccc3)c3ccccc3n2)c(OC)c1	35.5 µM [falling, single point]	–
N#C/C(=C/c1ccc(N2CCCCC2)o1)C(=O)Nc1ccc(Cl)cc1	6.51 µM [falling, full curve, poor fit]	–
CC1CCCC(NC(=O)Cn2cc(C(F)(F)F)cc(Cl)c2=O)C1C (stereo unspecified)	0.164 µM [falling, full curve, poor fit]	–
Cc1cccc(NC(=O)c2cc(S(=O)(=O)N3CCCCC3)ccc2Cl)n1	11.6 µM [rising, partial curve, poor fit]	–
O=C(CNc1ccc2c(c1)OCO2)N/N=C\c1cn(Cc2ccc(F)cc2)c2ccccc12	6.51 µM [falling, full curve]	–
COc1ccc([N+](=O)[O-])cc1NCc1ccco1	10 µM [rising, partial curve, poor fit]	–
Cc1ccc(CS(=O)(=O)c2ccc(C(=O)N3CCCCC3)cc2[N+](=O)[O-])cc1	10 µM [falling, partial curve, poor fit]	–
O=C(c1ccc(-c2ccc([N+](=O)[O-])cc2)o1)N1CCCCC1	1.46 µM [rising, full curve, poor fit]	–
CCOCCCNC(=O)c1cc(Sc2nnc(C)s2)nc2ccccc12	35.5 µM [rising, single point]	–
Cn1cc(SCC(=O)NCCc2ccccc2)c2ccccc21	1.41 µM [rising, partial curve]	–
CC1(C)Cc2c(c(-c3ccccc3)[nH]c(=O)c2C#N)CS1	0.411 µM [falling, partial curve, poor fit]	–
CCc1c(C#N)c(SCCC(=O)Nc2ccc(F)cc2)nc2c1C(=O)CC(C)(C)C2	32.6 µM [falling, single point]	–
COc1ccc(CNC(=O)C(c2ccco2)N(C(=O)CNS(=O)(=O)c2ccccc2)c2ccccc2C)cc1 (stereo unspecified)	20.6 µM [falling, single point]	–
COc1cc(C2NC(C(=O)O)CS2)ccc1OCc1ccccc1C#N (stereo unspecified)	18.4 µM [falling, single point]	–
COc1ccc(C(=O)Nc2ccc(/C(C)=N/NC(=O)c3ccccc3O)cc2)cc1OC	10.3 µM [falling, partial curve]	32.6 µM [falling, partial curve, poor fit]
CC1CCN(Cc2nc(-c3ccc(Cl)cc3)no2)CC1	0.112 µM [rising, full curve, poor fit]	–
O=c1[nH]n(-c2ccc([N+](=O)[O-])cc2)c(=O)c2ccccc12	35.5 µM [falling, single point]	–
CC1CCC2(CC1)NC(=O)N(CC(=O)Nc1ccc(F)cc1)C2=O (stereo unspecified)	14.6 µM [falling, partial curve]	–
c1ccc(Nc2ccccn2)nc1	1 µM [falling, full curve]	–

SMILES	AC50 [1]	AC50 [2]
Cc1ccc(/C=C2\Oc3cc(OCC(=O)NN)ccc3C2=O)o1	0.398 µM [rising, full curve, poor fit]	–
CCOC(=O)c1ccc(Nc2ncnc3c2cnn3C)cc1	2 µM [rising, partial curve]	–
COC(=O)Cc1[nH]nc2c1C(C1C=CCCC1)C(C#N)=C(N)O2 (stereo unspecified)	14.6 µM [falling, partial curve]	–
COc1cccc(-c2cc(C(=O)Nc3ccccc3SC)no2)c1	0.1 µM [falling, full curve, poor fit]	–
COc1ccc(C)c2sc(=NC(=O)c3ccc(C(C)=O)cc3)n(C)c12	2.24 µM [falling, full curve]	–
Clc1nnc(N/N=C/c2ccccc2)c2ccccc12	13 µM [falling, partial curve]	–
O=S(=O)(c1ccccc1)N1CCC(Oc2ccc(-n3cnnn3)cc2)CC1	0.1 µM [falling, full curve, poor fit]	–
Cn1cc(CNC(=O)COc2ccc(Cl)cc2Cl)cn1	16.4 µM [rising, single point]	–
COc1ccccc1C(=O)Nc1ccccc1C(=O)N1CCCC1	4.11 µM [rising, partial curve, poor fit]	–
O=C1c2ccccc2C(=O)N1CCCP(=O)(O)CCc1ccccc1	29.1 µM [falling, single point]	–
O=C(NCC1CCCO1)c1ccc(S(=O)(=O)Nc2ccc(F)cc2)cc1 (stereo unspecified)	29.1 µM [rising, single point]	–
CCn1c(SCc2ccc(OC)c(F)c2)nc2ccccc2c1=O	14.1 µM [rising, single point]	–
Cn1cc(Cl)c(C(=O)Nc2nc3ccc([N+](=O)[O-])cc3s2)n1	3.98 µM [falling, partial curve]	–
Cc1ccnc(NC(=O)CCC(=O)N(CC(=O)NCc2ccccc2)Cc2ccco2)c1	2 µM [falling, full curve, poor fit]	–
Cc1ccc(/C=C2\SC(=S)N(CCCC(=O)Nc3ccccc3C(=O)O)C2=O)cc1	0.794 µM [rising, partial curve, poor fit]	–
CCCCCCCN1C(Nc2ccccc2)=NC[C@@H]1Cc1ccccc1	17.8 µM [falling, partial curve]	–
CCCc1ccc(-c2ccc(C(=O)O)cc2)nc1	2.59 µM [falling, partial curve]	–
COc1ccc(C)c2sc(N(CCN(C)C)C(=O)/C=C/c3cccs3)nc12	14.1 µM [falling, partial curve]	–
O=C(/C=C/c1cccc([N+](=O)[O-])c1)Nn1c(-c2ccccc2F)nc2ccccc2c1=O	13 µM [rising, partial curve]	–
Oc1ccc(/C=N/n2c(-c3ccccc3)n[nH]c2=S)cc1Br	11.2 µM [falling, partial curve, poor fit]	–

Record cards, as listed above. Order of values: AC50 [1]	AC50 [2]
CCOC(=O)c1ccc(Nc2ncnc3c2cnn3C)cc1 reads 2 µM [rising, partial curve]	–
Cc1ccnc(NC(=O)CCC(=O)N(CC(=O)NCc2ccccc2)Cc2ccco2)c1 reads 2 µM [falling, full curve, poor fit]	–
